Test results: the supplement of paper PMC12823440, “Inhibitors supercharge kinase turnover through native proteolytic circuits” (Nature, 2025)
Some of the results follow. Hit calls seldom repeat between salt and free forms of one compound.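 Kinases were expressed as nanoluciferase fusions in K562 cells and luminescence was read every 4 h between 2 and 18 h as percent of control, DMSO set to 100% and a positive control to 0%. A time point counts as decreased when the signal drops significantly (2 sigma). The hit call is the authors' own, does not follow from the count of time points alone, and its rule is not shown.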

The chains behind the UniProt entries cited, without tags or fusion partners. Where a name states a change or a piece, a line headed by the entry shows the natural chain unless it says otherwise.
UniProt P00519, whole entry: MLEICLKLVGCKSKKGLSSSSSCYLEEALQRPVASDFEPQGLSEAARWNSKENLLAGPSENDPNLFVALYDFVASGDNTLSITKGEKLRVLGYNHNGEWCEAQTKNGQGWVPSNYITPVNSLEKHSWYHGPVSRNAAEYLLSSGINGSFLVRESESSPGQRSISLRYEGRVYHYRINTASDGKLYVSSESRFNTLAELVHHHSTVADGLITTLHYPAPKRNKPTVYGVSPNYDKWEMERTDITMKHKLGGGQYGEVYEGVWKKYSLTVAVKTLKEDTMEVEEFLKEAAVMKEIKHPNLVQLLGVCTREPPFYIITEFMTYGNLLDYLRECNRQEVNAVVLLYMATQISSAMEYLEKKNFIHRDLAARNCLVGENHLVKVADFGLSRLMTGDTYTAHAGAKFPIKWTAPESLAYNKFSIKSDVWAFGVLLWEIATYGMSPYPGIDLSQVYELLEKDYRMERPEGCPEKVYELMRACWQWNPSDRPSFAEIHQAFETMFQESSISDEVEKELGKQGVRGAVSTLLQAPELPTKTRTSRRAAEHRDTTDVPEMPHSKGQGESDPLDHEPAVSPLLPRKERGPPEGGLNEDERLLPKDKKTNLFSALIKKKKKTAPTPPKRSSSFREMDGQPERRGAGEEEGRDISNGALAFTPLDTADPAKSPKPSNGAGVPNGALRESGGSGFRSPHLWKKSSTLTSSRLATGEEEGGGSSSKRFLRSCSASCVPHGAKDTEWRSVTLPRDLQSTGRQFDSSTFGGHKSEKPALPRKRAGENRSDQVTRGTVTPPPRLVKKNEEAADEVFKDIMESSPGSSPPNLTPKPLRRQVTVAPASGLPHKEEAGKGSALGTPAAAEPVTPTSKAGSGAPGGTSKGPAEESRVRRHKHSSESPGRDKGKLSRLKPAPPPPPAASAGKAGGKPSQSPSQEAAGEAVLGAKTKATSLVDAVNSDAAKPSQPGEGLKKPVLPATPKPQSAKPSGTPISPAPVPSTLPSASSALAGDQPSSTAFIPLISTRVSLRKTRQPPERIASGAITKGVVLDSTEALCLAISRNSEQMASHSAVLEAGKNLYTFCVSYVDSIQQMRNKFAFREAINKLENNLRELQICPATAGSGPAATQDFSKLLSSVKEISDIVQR
UniProt Q9UM73: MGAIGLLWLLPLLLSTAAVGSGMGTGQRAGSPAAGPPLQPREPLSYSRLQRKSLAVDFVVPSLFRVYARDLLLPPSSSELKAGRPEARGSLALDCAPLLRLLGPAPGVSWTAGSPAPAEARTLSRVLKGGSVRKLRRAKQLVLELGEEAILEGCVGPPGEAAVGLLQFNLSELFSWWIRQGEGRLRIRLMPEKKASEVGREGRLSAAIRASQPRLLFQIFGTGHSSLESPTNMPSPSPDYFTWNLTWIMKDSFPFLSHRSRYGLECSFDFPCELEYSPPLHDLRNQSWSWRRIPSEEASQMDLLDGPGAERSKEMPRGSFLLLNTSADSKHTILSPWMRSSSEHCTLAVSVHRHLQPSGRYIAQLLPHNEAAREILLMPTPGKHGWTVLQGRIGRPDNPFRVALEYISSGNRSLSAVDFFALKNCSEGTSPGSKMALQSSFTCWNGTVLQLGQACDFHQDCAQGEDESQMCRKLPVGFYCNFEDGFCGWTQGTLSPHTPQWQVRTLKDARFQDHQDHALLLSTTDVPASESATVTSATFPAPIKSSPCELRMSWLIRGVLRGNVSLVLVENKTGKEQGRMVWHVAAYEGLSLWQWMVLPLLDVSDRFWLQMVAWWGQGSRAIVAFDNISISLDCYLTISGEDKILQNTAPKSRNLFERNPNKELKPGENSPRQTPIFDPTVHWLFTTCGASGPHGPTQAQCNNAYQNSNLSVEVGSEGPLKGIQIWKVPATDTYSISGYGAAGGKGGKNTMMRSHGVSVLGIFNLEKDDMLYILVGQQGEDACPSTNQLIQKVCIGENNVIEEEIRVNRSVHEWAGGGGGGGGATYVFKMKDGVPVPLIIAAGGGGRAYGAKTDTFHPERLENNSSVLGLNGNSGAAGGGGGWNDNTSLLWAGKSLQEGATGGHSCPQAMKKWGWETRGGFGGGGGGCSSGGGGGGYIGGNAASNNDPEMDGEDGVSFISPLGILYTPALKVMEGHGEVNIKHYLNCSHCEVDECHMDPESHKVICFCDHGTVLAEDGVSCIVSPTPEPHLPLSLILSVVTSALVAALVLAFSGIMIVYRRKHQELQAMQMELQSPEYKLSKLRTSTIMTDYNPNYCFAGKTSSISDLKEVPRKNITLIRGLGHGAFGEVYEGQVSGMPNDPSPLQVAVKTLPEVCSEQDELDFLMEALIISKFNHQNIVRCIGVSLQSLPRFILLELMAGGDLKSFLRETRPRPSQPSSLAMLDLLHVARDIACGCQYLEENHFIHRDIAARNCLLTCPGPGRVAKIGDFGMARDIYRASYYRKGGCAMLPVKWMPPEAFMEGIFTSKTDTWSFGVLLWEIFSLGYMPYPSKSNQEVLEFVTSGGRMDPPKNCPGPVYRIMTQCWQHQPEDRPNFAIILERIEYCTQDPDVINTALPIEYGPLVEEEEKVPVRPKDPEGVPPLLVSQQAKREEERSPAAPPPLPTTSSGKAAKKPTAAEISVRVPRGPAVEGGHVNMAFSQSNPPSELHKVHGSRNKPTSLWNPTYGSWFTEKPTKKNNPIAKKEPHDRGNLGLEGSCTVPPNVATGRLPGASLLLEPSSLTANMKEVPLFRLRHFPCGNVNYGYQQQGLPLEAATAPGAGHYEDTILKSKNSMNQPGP
UniProt P10398: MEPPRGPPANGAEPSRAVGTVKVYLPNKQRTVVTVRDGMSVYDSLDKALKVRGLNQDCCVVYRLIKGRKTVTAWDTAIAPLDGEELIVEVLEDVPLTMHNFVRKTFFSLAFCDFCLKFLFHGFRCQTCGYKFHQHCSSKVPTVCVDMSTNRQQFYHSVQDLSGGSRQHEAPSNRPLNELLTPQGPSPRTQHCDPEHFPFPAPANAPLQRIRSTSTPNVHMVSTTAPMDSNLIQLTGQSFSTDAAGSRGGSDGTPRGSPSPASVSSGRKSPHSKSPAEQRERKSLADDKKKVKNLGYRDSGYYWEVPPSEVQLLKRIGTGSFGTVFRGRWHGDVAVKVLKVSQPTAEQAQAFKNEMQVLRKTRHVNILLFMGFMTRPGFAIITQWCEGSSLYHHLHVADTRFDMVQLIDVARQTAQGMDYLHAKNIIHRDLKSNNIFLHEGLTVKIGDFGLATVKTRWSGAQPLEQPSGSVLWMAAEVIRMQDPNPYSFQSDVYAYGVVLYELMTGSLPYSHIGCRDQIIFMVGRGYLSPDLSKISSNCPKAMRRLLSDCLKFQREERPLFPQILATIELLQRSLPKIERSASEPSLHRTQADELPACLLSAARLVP
UniProt O14965: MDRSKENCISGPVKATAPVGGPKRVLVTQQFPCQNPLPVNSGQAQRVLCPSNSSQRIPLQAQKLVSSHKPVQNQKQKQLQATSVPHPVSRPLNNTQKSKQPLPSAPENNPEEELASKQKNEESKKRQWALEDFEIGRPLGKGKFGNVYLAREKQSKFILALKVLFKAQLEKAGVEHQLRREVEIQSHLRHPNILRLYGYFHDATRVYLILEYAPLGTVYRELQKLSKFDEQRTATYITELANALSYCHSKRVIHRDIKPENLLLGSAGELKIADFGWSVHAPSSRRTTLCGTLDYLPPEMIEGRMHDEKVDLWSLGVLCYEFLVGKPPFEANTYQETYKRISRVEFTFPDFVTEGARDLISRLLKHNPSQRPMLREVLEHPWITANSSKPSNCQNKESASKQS
UniProt Q9UQB9: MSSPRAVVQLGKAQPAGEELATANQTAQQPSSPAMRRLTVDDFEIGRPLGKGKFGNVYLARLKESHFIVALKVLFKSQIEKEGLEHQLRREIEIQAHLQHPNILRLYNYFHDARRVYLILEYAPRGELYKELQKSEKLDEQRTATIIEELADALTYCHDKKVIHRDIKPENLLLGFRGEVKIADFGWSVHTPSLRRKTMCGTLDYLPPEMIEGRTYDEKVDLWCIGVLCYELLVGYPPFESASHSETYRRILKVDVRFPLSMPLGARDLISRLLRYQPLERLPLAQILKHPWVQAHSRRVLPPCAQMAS
UniProt P15056, whole entry, looked up: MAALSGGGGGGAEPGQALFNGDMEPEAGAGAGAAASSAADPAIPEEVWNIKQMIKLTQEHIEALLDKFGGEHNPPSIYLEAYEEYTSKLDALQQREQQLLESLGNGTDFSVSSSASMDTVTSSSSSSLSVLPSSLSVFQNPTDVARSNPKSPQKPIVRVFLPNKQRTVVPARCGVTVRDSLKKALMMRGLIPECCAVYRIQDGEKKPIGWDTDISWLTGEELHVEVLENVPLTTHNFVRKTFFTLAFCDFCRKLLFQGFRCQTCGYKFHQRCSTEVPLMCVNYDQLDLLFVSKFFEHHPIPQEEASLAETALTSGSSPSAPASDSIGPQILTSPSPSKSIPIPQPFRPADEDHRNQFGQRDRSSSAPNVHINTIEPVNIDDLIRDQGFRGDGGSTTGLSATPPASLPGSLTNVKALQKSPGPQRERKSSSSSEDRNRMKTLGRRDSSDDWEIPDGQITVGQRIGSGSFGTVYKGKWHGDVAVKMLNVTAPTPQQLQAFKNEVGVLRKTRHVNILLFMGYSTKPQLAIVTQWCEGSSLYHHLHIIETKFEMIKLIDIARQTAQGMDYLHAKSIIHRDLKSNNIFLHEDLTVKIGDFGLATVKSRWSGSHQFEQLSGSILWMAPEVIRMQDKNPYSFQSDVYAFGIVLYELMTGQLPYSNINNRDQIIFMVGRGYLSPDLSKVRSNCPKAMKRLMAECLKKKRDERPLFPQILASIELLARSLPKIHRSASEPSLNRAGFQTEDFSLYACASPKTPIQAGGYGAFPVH
UniProt Q13555: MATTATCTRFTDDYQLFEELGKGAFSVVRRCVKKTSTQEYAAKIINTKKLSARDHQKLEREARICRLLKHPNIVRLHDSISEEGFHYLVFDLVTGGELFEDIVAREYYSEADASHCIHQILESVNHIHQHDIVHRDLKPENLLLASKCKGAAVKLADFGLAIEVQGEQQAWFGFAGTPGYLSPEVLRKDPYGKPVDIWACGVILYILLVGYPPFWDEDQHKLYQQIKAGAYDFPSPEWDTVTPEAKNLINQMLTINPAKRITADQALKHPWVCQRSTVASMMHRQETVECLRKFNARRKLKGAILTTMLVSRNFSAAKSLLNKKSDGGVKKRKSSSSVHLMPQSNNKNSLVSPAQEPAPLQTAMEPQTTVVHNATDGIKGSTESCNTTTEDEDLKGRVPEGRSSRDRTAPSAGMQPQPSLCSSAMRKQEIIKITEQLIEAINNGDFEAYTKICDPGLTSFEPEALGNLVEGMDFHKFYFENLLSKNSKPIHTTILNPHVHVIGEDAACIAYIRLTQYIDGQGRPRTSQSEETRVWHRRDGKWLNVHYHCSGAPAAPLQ
UniProt Q15131: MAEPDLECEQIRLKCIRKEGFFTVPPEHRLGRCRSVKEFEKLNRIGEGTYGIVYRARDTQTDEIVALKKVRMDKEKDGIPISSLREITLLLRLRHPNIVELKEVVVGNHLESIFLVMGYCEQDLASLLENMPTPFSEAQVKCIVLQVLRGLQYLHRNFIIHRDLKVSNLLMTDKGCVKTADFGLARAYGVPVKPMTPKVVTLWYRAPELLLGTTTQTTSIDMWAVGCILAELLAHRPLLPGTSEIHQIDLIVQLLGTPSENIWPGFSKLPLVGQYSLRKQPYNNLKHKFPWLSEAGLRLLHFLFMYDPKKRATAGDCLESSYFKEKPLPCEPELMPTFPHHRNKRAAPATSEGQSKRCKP
UniProt P11802: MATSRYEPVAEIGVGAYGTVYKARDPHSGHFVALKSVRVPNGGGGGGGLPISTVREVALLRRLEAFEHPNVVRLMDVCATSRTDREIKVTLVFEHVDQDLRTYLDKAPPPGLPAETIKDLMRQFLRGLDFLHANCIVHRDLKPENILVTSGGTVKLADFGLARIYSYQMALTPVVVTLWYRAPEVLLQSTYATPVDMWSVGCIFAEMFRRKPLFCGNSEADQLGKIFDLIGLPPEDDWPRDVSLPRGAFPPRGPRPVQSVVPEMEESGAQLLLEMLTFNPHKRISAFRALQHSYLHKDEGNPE
UniProt Q00535, whole entry, looked up: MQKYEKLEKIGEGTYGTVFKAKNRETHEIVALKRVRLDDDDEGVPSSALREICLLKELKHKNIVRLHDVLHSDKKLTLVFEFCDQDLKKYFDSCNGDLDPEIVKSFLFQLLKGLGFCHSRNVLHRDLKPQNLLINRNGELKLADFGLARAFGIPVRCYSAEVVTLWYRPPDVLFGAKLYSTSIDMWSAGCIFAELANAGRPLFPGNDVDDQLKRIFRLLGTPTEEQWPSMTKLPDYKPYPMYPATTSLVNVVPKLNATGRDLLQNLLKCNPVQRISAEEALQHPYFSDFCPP

Assays:
Assay in all cases: kinase-Nluc reporter destabilization hit call (1 = scored as downregulated) (binary); higher = compound decreases kinase abundance
Conditions in all cases: K562; 2-18 h
ABL1 = ABL1 (UniProt P00519)
AKT1 = AKT1 (UniProt P31749)
ALK = ALK (UniProt Q9UM73)
ARAF = ARAF (UniProt P10398)
AURKA = AURKA (UniProt O14965)
AURKB = AURKB (UniProt Q96GD4)
AURKC = AURKC (UniProt Q9UQB9)
BLK = BLK (UniProt P51451)
BMX = BMX (UniProt P51813)
BRAF = BRAF (UniProt P15056)
BRAF_V600E = tested on: BRAF_V600E
BTK = BTK (UniProt Q06187)
CAMK2A = CAMK2A (UniProt Q9UQM7)
CAMK2G = CAMK2G (UniProt Q13555)
CDK10 = CDK10 (UniProt Q15131)
CDK2 = CDK2 (UniProt P24941)
CDK3 = CDK3 (UniProt Q00526)
CDK4 = CDK4 (UniProt P11802)
CDK5 = CDK5 (UniProt Q00535)
CDK6 = CDK6 (UniProt Q00534)

SMILES | kinase-Nluc reporter destabilization hit call (ABL1) | kinase-Nluc reporter destabilization hit call (AKT1) | kinase-Nluc reporter destabilization hit call (ALK) | kinase-Nluc reporter destabilization hit call (ARAF) | kinase-Nluc reporter destabilization hit call (AURKA) | kinase-Nluc reporter destabilization hit call (AURKB) | kinase-Nluc reporter destabilization hit call (AURKC) | kinase-Nluc reporter destabilization hit call (BLK) | kinase-Nluc reporter destabilization hit call (BMX) | kinase-Nluc reporter destabilization hit call (BRAF) | kinase-Nluc reporter destabilization hit call (BRAF_V600E) | kinase-Nluc reporter destabilization hit call (BTK) | kinase-Nluc reporter destabilization hit call (CAMK2A) | kinase-Nluc reporter destabilization hit call (CAMK2G) | kinase-Nluc reporter destabilization hit call (CDK10) | kinase-Nluc reporter destabilization hit call (CDK2) | kinase-Nluc reporter destabilization hit call (CDK3) | kinase-Nluc reporter destabilization hit call (CDK4) | kinase-Nluc reporter destabilization hit call (CDK5) | kinase-Nluc reporter destabilization hit call (CDK6)
CNC(=O)c1cc(COc2nnc(Nc3ccc(Cl)cc3)c3ccoc23)ccn1 [Telatinib] (10 µM) | inactive: 0 | inactive: 0 | inactive: 0 | inactive: 0 | inactive: 0 | inactive: 0 | inactive: 0 | inactive: 0 | inactive: 0 | inactive: 0 | inactive: 0 | inactive: 0 | inactive: 0 | inactive: 0 | inactive: 0 | inactive: 0 | inactive: 0 | inactive: 0 | inactive: 0 | inactive: 0
COc1cc(OC2CCN(C)CC2)ccc1Nc1ncc2c(n1)n(C1CCCC1)c(=O)n2C (10 µM) | inactive: 0 | inactive: 0 | inactive: 0 | inactive: 0 | inactive: 0 | inactive: 0 | inactive: 0 | inactive: 0 | inactive: 0 | inactive: 0 | inactive: 0 | inactive: 0 | inactive: 0 | inactive: 0 | inactive: 0 | inactive: 0 | inactive: 0 | inactive: 0 | inactive: 0 | inactive: 0
CC1CCc2c(cc(Br)c(F)c2Br)N1C=O (stereo not given) (10 µM) | inactive: 0 | inactive: 0 | inactive: 0 | inactive: 0 | inactive: 0 | inactive: 0 | inactive: 0 | inactive: 0 | inactive: 0 | inactive: 0 | inactive: 0 | inactive: 0 | inactive: 0 | inactive: 0 | inactive: 0 | inactive: 0 | inactive: 0 | inactive: 0 | inactive: 0 | inactive: 0
CC#CC(=O)Nc1ccc2ncnc(Nc3cccc(Br)c3)c2c1 (10 µM) | inactive: 0 | inactive: 0 | inactive: 0 | inactive: 0 | inactive: 0 | inactive: 0 | inactive: 0 | inactive: 0 | inactive: 0 | inactive: 0 | inactive: 0 | inactive: 0 | inactive: 0 | inactive: 0 | inactive: 0 | inactive: 0 | inactive: 0 | inactive: 0 | inactive: 0 | inactive: 0
Cn1cnc(Cn2ccc3ccc(CNCc4[nH]c5ccccc5c4[C@H]4NC(=O)c5ccc(O)cc54)cc32)c1 (10 µM) | inactive: 0 | inactive: 0 | inactive: 0 | inactive: 0 | inactive: 0 | inactive: 0 | inactive: 0 | inactive: 0 | inactive: 0 | inactive: 0 | inactive: 0 | inactive: 0 | inactive: 0 | inactive: 0 | inactive: 0 | inactive: 0 | inactive: 0 | inactive: 0 | inactive: 0 | inactive: 0
Oc1cc(O)c2cc(O)c(-c3cc(O)c(O)c(O)c3)[o+]c2c1 [Delphinidin (chloride)] (10 µM) | inactive: 0 | inactive: 0 | inactive: 0 | inactive: 0 | inactive: 0 | inactive: 0 | inactive: 0 | inactive: 0 | inactive: 0 | inactive: 0 | inactive: 0 | inactive: 0 | inactive: 0 | inactive: 0 | inactive: 0 | inactive: 0 | inactive: 0 | inactive: 0 | inactive: 0 | inactive: 0
O=Nc1c(-c2c(O)[nH]c3ccc(F)cc23)[nH]c2ccccc12 [5'-Fluoroindirubinoxime] (10 µM) | inactive: 0 | inactive: 0 | inactive: 0 | inactive: 0 | inactive: 0 | inactive: 0 | inactive: 0 | inactive: 0 | inactive: 0 | inactive: 0 | inactive: 0 | inactive: 0 | inactive: 0 | inactive: 0 | inactive: 0 | inactive: 0 | inactive: 0 | inactive: 0 | inactive: 0 | inactive: 0
Oc1cc2c(cc1O)C(Cc1cccc3ccccc13)NCC2 (stereo not given) (10 µM) | inactive: 0 | inactive: 0 | inactive: 0 | inactive: 0 | inactive: 0 | inactive: 0 | inactive: 0 | inactive: 0 | inactive: 0 | inactive: 0 | inactive: 0 | inactive: 0 | inactive: 0 | inactive: 0 | inactive: 0 | inactive: 0 | inactive: 0 | inactive: 0 | inactive: 0 | inactive: 0
COc1ccc(Cl)c(Nc2nc3ccccc3nc2NS(=O)(=O)c2cccc(NC(=O)C(C)(C)N)c2)c1 [Pilaralisib] (10 µM) | inactive: 0 | inactive: 0 | inactive: 0 | inactive: 0 | inactive: 0 | inactive: 0 | inactive: 0 | inactive: 0 | inactive: 0 | inactive: 0 | inactive: 0 | inactive: 0 | inactive: 0 | inactive: 0 | inactive: 0 | inactive: 0 | inactive: 0 | inactive: 0 | inactive: 0 | inactive: 0
C=CC(=O)Nc1cc(C)ccc1Nc1nc(Nc2cc(OC)ncc2C)ncc1C(F)(F)F (10 µM) | inactive: 0 | inactive: 0 | inactive: 0 | inactive: 0 | inactive: 0 | inactive: 0 | inactive: 0 | inactive: 0 | inactive: 0 | inactive: 0 | inactive: 0 | inactive: 0 | inactive: 0 | inactive: 0 | inactive: 0 | inactive: 0 | inactive: 0 | inactive: 0 | inactive: 0 | inactive: 0
C[C@@H]1CC[C@@H](Nc2nc(NC(C)(C)C)ncc2C(N)=O)C[C@H]1O (10 µM) | inactive: 0 | inactive: 0 | inactive: 0 | inactive: 0 | inactive: 0 | inactive: 0 | inactive: 0 | inactive: 0 | inactive: 0 | inactive: 0 | inactive: 0 | inactive: 0 | inactive: 0 | inactive: 0 | inactive: 0 | inactive: 0 | inactive: 0 | inactive: 0 | inactive: 0 | inactive: 0
c1cc(-c2c[nH]c3nccc(N4CCC[C@@]5(CCCCN5)C4)c23)ncn1 (10 µM) | inactive: 0 | inactive: 0 | inactive: 0 | inactive: 0 | inactive: 0 | inactive: 0 | inactive: 0 | inactive: 0 | inactive: 0 | inactive: 0 | inactive: 0 | inactive: 0 | inactive: 0 | inactive: 0 | inactive: 0 | inactive: 0 | inactive: 0 | inactive: 0 | inactive: 0 | inactive: 0
CNc1nc(Nc2ccc(C(=O)N3CCOCC3)cc2OC)nc2[nH]cc(Cl)c12 (2.5 µM) | inactive: 0 | inactive: 0 | inactive: 0 | inactive: 0 | inactive: 0 | inactive: 0 | inactive: 0 | inactive: 0 | inactive: 0 | inactive: 0 | inactive: 0 | inactive: 0 | inactive: 0 | inactive: 0 | inactive: 0 | inactive: 0 | inactive: 0 | inactive: 0 | inactive: 0 | inactive: 0
O=Nc1c(-c2c(O)[nH]c3ccc(I)cc23)[nH]c2ccccc12 [5-Iodo-indirubin-3'-monoxime] (10 µM) | inactive: 0 | inactive: 0 | inactive: 0 | inactive: 0 | inactive: 0 | inactive: 0 | inactive: 0 | inactive: 0 | inactive: 0 | active: 1 | inactive: 0 | inactive: 0 | inactive: 0 | inactive: 0 | inactive: 0 | inactive: 0 | inactive: 0 | inactive: 0 | inactive: 0 | inactive: 0
Cc1cc2ncc(-c3ccc(O)c(O)c3)nc2cc1C [Tyrphostin AG1433] (10 µM) | inactive: 0 | inactive: 0 | inactive: 0 | inactive: 0 | inactive: 0 | inactive: 0 | inactive: 0 | inactive: 0 | inactive: 0 | inactive: 0 | inactive: 0 | inactive: 0 | inactive: 0 | inactive: 0 | inactive: 0 | inactive: 0 | inactive: 0 | inactive: 0 | inactive: 0 | inactive: 0
CC[C@@H](Oc1nc(Oc2cc(C)cc(-c3cccc(CN)c3)c2)c(F)cc1F)C(=O)O (10 µM) | inactive: 0 | inactive: 0 | inactive: 0 | inactive: 0 | inactive: 0 | inactive: 0 | inactive: 0 | inactive: 0 | inactive: 0 | inactive: 0 | inactive: 0 | inactive: 0 | inactive: 0 | inactive: 0 | inactive: 0 | inactive: 0 | inactive: 0 | inactive: 0 | inactive: 0 | inactive: 0
CN1CCN(c2cccc(Nc3nc4c(-c5ccc(S(C)(=O)=O)cc5)cccn4n3)c2)CC1 (10 µM) | inactive: 0 | inactive: 0 | inactive: 0 | inactive: 0 | inactive: 0 | inactive: 0 | inactive: 0 | inactive: 0 | inactive: 0 | inactive: 0 | inactive: 0 | inactive: 0 | inactive: 0 | inactive: 0 | inactive: 0 | inactive: 0 | inactive: 0 | inactive: 0 | inactive: 0 | inactive: 0
C[C@@H]1COCCN1c1cc(C2([S@@](C)(=N)=O)CC2)nc(-c2ccnc3[nH]ccc23)n1 [(S)-Ceralasertib] (10 µM) | inactive: 0 | inactive: 0 | inactive: 0 | inactive: 0 | inactive: 0 | inactive: 0 | inactive: 0 | inactive: 0 | inactive: 0 | inactive: 0 | inactive: 0 | inactive: 0 | inactive: 0 | inactive: 0 | inactive: 0 | inactive: 0 | inactive: 0 | inactive: 0 | inactive: 0 | inactive: 0

Entries of single compounds from above. Order of values: kinase-Nluc reporter destabilization hit call (ABL1)	kinase-Nluc reporter destabilization hit call (AKT1)	kinase-Nluc reporter destabilization hit call (ALK)	kinase-Nluc reporter destabilization hit call (ARAF)	kinase-Nluc reporter destabilization hit call (AURKA)	kinase-Nluc reporter destabilization hit call (AURKB)	kinase-Nluc reporter destabilization hit call (AURKC)	kinase-Nluc reporter destabilization hit call (BLK)	kinase-Nluc reporter destabilization hit call (BMX)	kinase-Nluc reporter destabilization hit call (BRAF)	kinase-Nluc reporter destabilization hit call (BRAF_V600E)	kinase-Nluc reporter destabilization hit call (BTK)	kinase-Nluc reporter destabilization hit call (CAMK2A)	kinase-Nluc reporter destabilization hit call (CAMK2G)	kinase-Nluc reporter destabilization hit call (CDK10)	kinase-Nluc reporter destabilization hit call (CDK2)	kinase-Nluc reporter destabilization hit call (CDK3)	kinase-Nluc reporter destabilization hit call (CDK4)	kinase-Nluc reporter destabilization hit call (CDK5)	kinase-Nluc reporter destabilization hit call (CDK6)
CN1CCN(c2cccc(Nc3nc4c(-c5ccc(S(C)(=O)=O)cc5)cccn4n3)c2)CC1 (10 µM) in the list: inactive: 0	inactive: 0	inactive: 0	inactive: 0	inactive: 0	inactive: 0	inactive: 0	inactive: 0	inactive: 0	inactive: 0	inactive: 0	inactive: 0	inactive: 0	inactive: 0	inactive: 0	inactive: 0	inactive: 0	inactive: 0	inactive: 0	inactive: 0
C[C@@H]1CC[C@@H](Nc2nc(NC(C)(C)C)ncc2C(N)=O)C[C@H]1O (10 µM) in the list: inactive: 0	inactive: 0	inactive: 0	inactive: 0	inactive: 0	inactive: 0	inactive: 0	inactive: 0	inactive: 0	inactive: 0	inactive: 0	inactive: 0	inactive: 0	inactive: 0	inactive: 0	inactive: 0	inactive: 0	inactive: 0	inactive: 0	inactive: 0
